Results published in article PMC2897763.
No constants are given. Whether binding was seen depends on the method and setting. Binding seen in cells or lysates may run through a third protein. Some results given as binding are weak or reduced against the parent protein; the word gives no strength.

Sequences of proteins named here, by UniProt entry; tags and fusion partners are left off. Residues count along the entry.
UniProt O75460, residues 19-977: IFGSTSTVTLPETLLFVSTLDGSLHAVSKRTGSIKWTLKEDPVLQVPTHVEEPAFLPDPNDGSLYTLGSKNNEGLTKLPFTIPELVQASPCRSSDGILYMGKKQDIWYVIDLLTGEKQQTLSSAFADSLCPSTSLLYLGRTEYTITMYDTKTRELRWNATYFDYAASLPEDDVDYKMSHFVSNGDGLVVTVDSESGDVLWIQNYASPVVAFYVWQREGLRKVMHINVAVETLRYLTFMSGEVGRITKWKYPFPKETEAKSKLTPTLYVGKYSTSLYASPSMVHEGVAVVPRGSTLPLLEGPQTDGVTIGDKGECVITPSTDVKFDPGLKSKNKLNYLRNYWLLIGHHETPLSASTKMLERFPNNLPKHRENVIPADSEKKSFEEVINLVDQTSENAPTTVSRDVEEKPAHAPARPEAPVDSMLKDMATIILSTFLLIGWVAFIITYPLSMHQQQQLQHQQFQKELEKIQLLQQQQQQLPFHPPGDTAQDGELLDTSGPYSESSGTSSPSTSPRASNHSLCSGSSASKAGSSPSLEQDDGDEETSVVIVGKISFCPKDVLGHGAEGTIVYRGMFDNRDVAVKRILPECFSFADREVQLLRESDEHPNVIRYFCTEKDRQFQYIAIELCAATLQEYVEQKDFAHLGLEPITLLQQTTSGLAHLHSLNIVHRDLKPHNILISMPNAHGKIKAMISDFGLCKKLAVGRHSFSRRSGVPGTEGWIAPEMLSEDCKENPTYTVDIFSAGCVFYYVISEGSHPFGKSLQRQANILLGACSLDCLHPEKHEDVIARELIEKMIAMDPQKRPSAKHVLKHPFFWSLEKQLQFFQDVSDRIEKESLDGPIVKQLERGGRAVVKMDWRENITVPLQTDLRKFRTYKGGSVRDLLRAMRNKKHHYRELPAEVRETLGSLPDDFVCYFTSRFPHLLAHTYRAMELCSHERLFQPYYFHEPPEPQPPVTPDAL
UniProt P0DMV8: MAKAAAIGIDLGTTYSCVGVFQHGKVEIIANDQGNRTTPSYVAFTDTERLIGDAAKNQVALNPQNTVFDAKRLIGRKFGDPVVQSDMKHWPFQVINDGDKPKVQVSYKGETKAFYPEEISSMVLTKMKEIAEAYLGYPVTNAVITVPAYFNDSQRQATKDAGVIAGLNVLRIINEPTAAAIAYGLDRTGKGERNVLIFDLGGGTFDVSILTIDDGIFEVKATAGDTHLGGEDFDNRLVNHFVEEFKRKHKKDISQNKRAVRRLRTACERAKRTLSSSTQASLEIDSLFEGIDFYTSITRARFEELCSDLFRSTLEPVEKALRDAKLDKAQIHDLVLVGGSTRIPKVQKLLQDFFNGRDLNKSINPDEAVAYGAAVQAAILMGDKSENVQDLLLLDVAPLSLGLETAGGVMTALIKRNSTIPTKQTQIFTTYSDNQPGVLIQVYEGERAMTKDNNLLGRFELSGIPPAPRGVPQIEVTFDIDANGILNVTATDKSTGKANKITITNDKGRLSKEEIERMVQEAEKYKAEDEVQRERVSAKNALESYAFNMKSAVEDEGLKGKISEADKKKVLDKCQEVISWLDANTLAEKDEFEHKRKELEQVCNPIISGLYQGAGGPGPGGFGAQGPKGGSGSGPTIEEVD
UniProt P63018: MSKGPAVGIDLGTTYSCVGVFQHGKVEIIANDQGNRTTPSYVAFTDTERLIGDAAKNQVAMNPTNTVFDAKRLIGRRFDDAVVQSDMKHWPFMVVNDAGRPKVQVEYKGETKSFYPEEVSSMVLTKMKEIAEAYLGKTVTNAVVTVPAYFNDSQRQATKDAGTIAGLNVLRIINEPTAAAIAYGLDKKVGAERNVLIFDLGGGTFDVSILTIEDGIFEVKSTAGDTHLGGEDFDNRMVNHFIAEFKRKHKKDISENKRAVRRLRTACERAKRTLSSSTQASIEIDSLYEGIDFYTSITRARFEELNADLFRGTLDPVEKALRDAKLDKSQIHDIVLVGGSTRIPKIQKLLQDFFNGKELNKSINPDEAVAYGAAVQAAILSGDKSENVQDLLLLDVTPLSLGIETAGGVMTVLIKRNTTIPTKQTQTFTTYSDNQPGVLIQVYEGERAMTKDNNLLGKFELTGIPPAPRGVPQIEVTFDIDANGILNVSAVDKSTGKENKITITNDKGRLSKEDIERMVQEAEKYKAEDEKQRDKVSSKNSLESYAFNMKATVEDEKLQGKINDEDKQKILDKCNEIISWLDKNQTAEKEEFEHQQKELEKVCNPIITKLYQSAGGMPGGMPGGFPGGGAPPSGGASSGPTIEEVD

Key:
[1] = biological target: IRE1α FL-HA, expressed in PC12 cells (UniProt O75460); experiment: co-IP; lysates of PC12 cells expressing Hsp72 constructs and transfected with HA-tagged IRE1α constructs; HA-agarose (Pierce HA tagged IP/Co-IP kit) overnight, washed with TBS 0.05% Tween, Western blot; cells untreated or treated with 0.25 µM thapsigargin for 12 h
[2] = biological target: endogenous Hsp72 of HEK 293 cells (human (endogenous in HEK 293)) (UniProt P0DMV8); experiment: co-IP; lysates of HEK 293 cells transiently transfected with IRE1α FL-HA or empty vector; endogenous Hsp72 immunoprecipitated with anti-Hsp72 polyclonal antibody (Stressgen SPA-811) overnight at 4°C and protein A-Sepharose, washed with TBS-0.05% Tween, Western blot for IRE1α
[3] = biological target: IRE1α FL-HA, expressed in HEK 293 cells (UniProt O75460); experiment: co-IP; lysates of HEK 293 cells transiently transfected with IRE1α FL-HA (48 h); IRE1α FL-HA immunoprecipitated, Western blot for endogenous Hsp72

Hsc70, the constitutive form of Hsp72 (from UniProt P63018 1-646)
binding [1]: no binding

Hsp72 (wild type), stably expressed in PC12 cells (from UniProt P0DMV8 1-641)
binding [1]: binds

IRE1α FL-HA, expressed in HEK 293 cells (from UniProt O75460 19-977)
binding [2]: binds

endogenous Hsp72 of HEK 293 cells (from UniProt P0DMV8 1-641)
binding [3]: binds

endogenous IRE1α of HEK 293 cells (from UniProt O75460 19-977)
binding [2]: binds
